# According to PubChem BioAssay AID445 (National Center for Advancing Translational Sciences (NCATS), 2006):
# The list shows a part of the results. These are further read-outs of the screen, such as a control signal, another cell line or another target. No call is given for them. Compounds called inactive in the main read-out are mostly missing here. Potencies come from curve fits of mixed quality, noted in brackets.
# Experiment: IkB Signaling
# Conditions: ABC-DLBCL IkBa-CBG/CBR dual luciferase ratio (green luciferase fused to IkBa over red control in OCI-Ly3 lymphoma cells), 4 h
# How it was run: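 Curves were fitted separately to fusion (green), unfused (red) and ratio luminescence, then classed by r2, magnitude and activity. Cells: OCI-Ly3, 4 h compound plus doxycycline at 37C; 10 uM MG-132 defined full response.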
# [1] = measured here: control luc red channel unless noted
structure (smiles),measurement,setting,value
Cc1cc(C2=CC(C)(c3cc(C)oc3C)Nc3nc(C(F)(F)F)nn32)c(C)o1 (configuration not stated),AC50,measured here: IkB-luc green channel,"31.6 µM [rising, partial curve]"
same,AC50,measured here: control luc red channel,"25.1 µM [falling, partial curve]"
CC1CCN(c2ccc(-c3cccc(NS(=O)(=O)c4ccc(Cl)s4)c3)nn2)CC1,AC50,[1],"10 µM [falling, partial curve]"
Cn1c(CN2CCCC2)nc2cc(NC(=O)Nc3ccccc3)ccc21,AC50,[1],"15.8 µM [falling, partial curve]"
OC1(c2cccc(C(F)(F)F)c2)CCN(c2ncnc3c2[nH]c2ccc(F)cc23)CC1,AC50,[1],"7.94 µM [falling, full curve]"
c1ccc(-c2nc(-n3ccnc3)nc(-n3ccnc3)n2)cc1,AC50,[1],"20 µM [falling, partial curve]"
COc1ccc(C2C(C#N)=C(N)Oc3n[nH]c(C)c32)cc1CN1CCN(c2ccc(F)cc2)CC1 (configuration not stated),AC50,[1],"6.31 µM [falling, partial curve]"
CN(Cc1cccs1)c1ncnc2sccc12,AC50,[1],"25.1 µM [falling, single point]"
COc1cccc(CCNC(=O)c2cnc3sc(N4CCCC4)nn3c2=O)c1,AC50,[1],"39.8 µM [falling, single point]"
COc1ccc(Cl)cc1NC(=O)N1CCC2(CC1)Oc1ccccc1C(=O)N2Cc1ccc(F)cc1,AC50,[1],"25.1 µM [falling, single point]"
CCOC(=O)C1=C(CN(CC)Cc2ccccc2)NC(=O)NC1c1ccc(Cl)cc1 (configuration not stated),AC50,[1],"20 µM [falling, partial curve]"
CC1CCc2c(sc3nnn(CC(=O)Nc4ccccc4Cl)c(=O)c23)C1 (configuration not stated),AC50,[1],"20 µM [falling, partial curve]"
CCCCNC(=O)c1ccc(-c2nc(CN3CCc4ccccc43)c(C)o2)cc1,AC50,[1],"3.16 µM [rising, partial curve]"
O=C(NCc1cccs1)C1CC(c2ccccc2O)=NO1 (configuration not stated),AC50,[1],"7.94 µM [falling, partial curve]"
Cc1ccc(Nc2c3c(nc4ccccc24)CCC3)cc1F,AC50,[1],"15.8 µM [falling, partial curve]"
COc1cc(C(=O)Nc2nc3ccc(S(=O)(=O)N4CCOCC4)cc3s2)cc(OC)c1OC,AC50,[1],"12.6 µM [falling, partial curve]"
NC(=O)c1ccccc1NC(=O)CCc1ccccc1,AC50,[1],"2.51 µM [falling, full curve]"
O=C(Nc1nccs1)C1CCN(S(=O)(=O)c2ccc3c(c2)OCCCO3)CC1,AC50,[1],"25.1 µM [falling, partial curve]"
Cc1ccc(NC(=O)CCNS(=O)(=O)c2cccs2)cc1F,AC50,[1],"3.16 µM [rising, single point]"
COc1ccccc1N(CC(=O)NCCSc1ccccc1)S(=O)(=O)c1ccc(C)cc1,AC50,[1],"15.8 µM [falling, partial curve]"
O=C1NCCCC2c3cc(O)c4ccccc4c3OC12N1CCCCC1 (configuration not stated),AC50,[1],"15.8 µM [falling, partial curve]"
CCOc1cc(C(=O)N2CC(=O)Nc3ccc(F)cc3C2c2ccccc2)cc(OCC)c1OCC (configuration not stated),AC50,[1],"7.94 µM [falling, full curve]"
CC(C)OCCCNC(=O)Cn1c(-c2cccs2)cc2cc(F)ccc21,AC50,[1],"25.1 µM [falling, partial curve, poor fit]"
COc1ccc(NC(=O)Cn2nc(C)c3c(C)n(-c4ccccc4)nc3c2=O)cc1OC,AC50,[1],"31.6 µM [falling, single point]"
CCOc1cc(-c2cc(C(=O)O)c3c(-c4ccccc4)[nH]nc3n2)ccc1O,AC50,[1],"1.26 µM [falling, full curve]"
COc1ccc(S(=O)(=O)NCC(c2ccco2)S(=O)(=O)c2cccs2)cc1OC (configuration not stated),AC50,[1],"31.6 µM [falling, single point]"
CCOc1ccc(-c2c(C)nn3c(C)c(C(=O)NC(C)c4ccccc4)cnc23)cc1OCC (configuration not stated),AC50,[1],"39.8 µM [falling, single point]"
CCCCC(=O)Nc1cc(-c2cn3cccnc3n2)ccc1C,AC50,[1],"0.794 µM [rising, single point]"
CCn1c(SCc2ccc(OC)cc2)nnc1-c1ccncc1,AC50,[1],"20 µM [falling, partial curve]"
O=C(CCSCc1ccccc1Cl)NCCc1ccccc1,AC50,[1],"39.8 µM [falling, single point]"
O=C(NCc1ccccc1)c1n[nH]nc1-c1ccccc1O,AC50,[1],"3.98 µM [falling, full curve]"
Cc1ccc(OCCSc2nc3ccccc3n2CC(=O)N2CCOCC2)cc1C,AC50,[1],"1.26 µM [rising, full curve]"
CCOC(=O)c1cc2c(=O)n3ccccc3nc2n(CC2CCCO2)c1=NC(=O)c1ccc(OCC)cc1 (configuration not stated),AC50,[1],"7.94 µM [falling, partial curve]"
C=C1CC[C@H](O)C/C1=C/C=C1\CCC[C@]2(C)[C@@H]([C@H](C)CCCC(C)C)CC[C@@H]12,AC50,[1],"31.6 µM [falling, partial curve]"
CN(Cc1ccccc1)C(=O)CSc1nc2ccccc2c(=O)n1Cc1ccco1,AC50,[1],"15.8 µM [falling, partial curve]"
CN(C)c1ccc(NC(=S)c2ccccn2)cc1,AC50,[1],"3.98 µM [falling, full curve]"
COc1ccc(-c2noc(CNC(=O)c3ccc(OC)cc3OC)n2)cc1,AC50,[1],"1.58 µM [falling, partial curve]"
CCC1=Nc2cc(C(=O)N3CCC(C)CC3)ccc2Sc2ccc(C)cc21,AC50,[1],"31.6 µM [falling, partial curve]"
CCOC(=O)c1c(NC(=O)COc2ccc(OC)cc2)sc(C(=O)N(CC)CC)c1C,AC50,[1],"39.8 µM [falling, single point]"
Cn1c(=O)c(C(=S)NC(=O)C2CC2)c(N)n(Cc2ccccc2)c1=O,AC50,[1],"39.8 µM [rising, single point] [measured here: IkB-luc green channel]"
N#C/C(=C\c1ccccc1)c1nc(-c2cc3c(ccc4ccccc43)oc2=O)cs1,AC50,[1],"0.794 µM [rising, full curve, poor fit]"
O=C(COC(=O)c1cc(-c2cccs2)nc2ccccc12)NCc1ccco1,AC50,[1],"25.1 µM [falling, partial curve]"

# Part of the list above, with tabs:
structure (smiles)	measurement	setting	value
OC1(c2cccc(C(F)(F)F)c2)CCN(c2ncnc3c2[nH]c2ccc(F)cc23)CC1	AC50	[1]	7.94 µM [falling, full curve]
O=C(Nc1nccs1)C1CCN(S(=O)(=O)c2ccc3c(c2)OCCCO3)CC1	AC50	[1]	25.1 µM [falling, partial curve]
